{"source": "paper PMC4027180", "key": {"[1]": {"tested_on": "Stf76 (Sulfolobus islandicus plasmid-virus pSSVx)", "experiment": "EMSA", "conditions": "EMSA: 20 mM Tris-acetate pH 8.0, 50 mM K acetate, 10 mM Mg acetate, 1 mM DTT, 5% glycerol, 50 C protein pre-incubation, binding 37 C, recombinant protein, protein details: C-terminal His6 (LEHHHHHH)"}, "[2]": {"tested_on": "Stf76 (Sulfolobus islandicus plasmid-virus pSSVx)", "experiment": "DNA thermal melting", "conditions": "DNA stabilized by 10 C at 2:1 protein:DNA; recombinant protein; protein details: C-terminal His6 (LEHHHHHH)"}, "[3]": {"tested_on": "Stf76 (Sulfolobus islandicus plasmid-virus pSSVx)", "experiment": "NMR CSP (15N HSQC)", "conditions": "15N-labeled Stf76, pH 5.5, sub-stoichiometric DNA; NMR: 20 mM Na phosphate pH 5.5, 50 mM NaCl; recombinant protein; protein details: C-terminal His6 (LEHHHHHH)"}, "[4]": {"tested_on": "Stf76 (Sulfolobus islandicus plasmid-virus pSSVx)", "experiment": "intrinsic fluorescence", "conditions": "decrease at 355 nm (Trp55) up to 2:1 protein:DNA; recombinant protein; protein details: C-terminal His6 (LEHHHHHH)"}, "[5]": {"tested_on": "Stf76 (Sulfolobus islandicus plasmid-virus pSSVx)", "experiment": "CD", "conditions": "change up to 2:1 protein:DNA, 20 C; CD: 10 mM Na phosphate, 50 mM NaCl pH 7.0, 20 C; recombinant protein; protein details: C-terminal His6 (LEHHHHHH)"}, "[6]": {"tested_on": "Stf76 (Sulfolobus islandicus plasmid-virus pSSVx)", "experiment": "ITC", "conditions": "second event (K2) at about 5:1 protein:DNA, only stated as micromolar range; ITC: 20 mM Na phosphate, 50 mM NaCl pH 7.0, 22 C; recombinant protein; protein details: C-terminal His6 (LEHHHHHH)"}, "[7]": {"tested_on": "Stf76 (Sulfolobus islandicus plasmid-virus pSSVx)", "experiment": "static light scattering", "conditions": "1:1 and 2:1 protein:DNA complexes; recombinant protein; protein details: C-terminal His6 (LEHHHHHH)"}}, "note": "Construct, isoform or probe ends are uncertain for at least one entry. For some assays here: Negatives hold for the conditions tested. For some assays here: A weaker result is weaker than the reference pair of the same experiment.", "data": [{"sequence": "GGAAACAGTATTAATAAAGTGCCGTTCCTATTACC (double strand) [probe A'*]", "values": [{"measurement": "binding result", "setting": "[1]; up to 51.6 uM Stf76, 1 ug salmon sperm DNA, label: 32P", "result": "no binding"}]}, {"sequence": "GGAAACAGTATTAATAAAGTGTTAATCCTATTACCC (double strand) [probe A' (35 bp-site A)]", "values": [{"measurement": "binding result", "setting": "[1]; 1 ug salmon sperm DNA", "result": "binds"}, {"measurement": "binding result", "setting": "[2]", "result": "binds"}, {"measurement": "binding result", "setting": "[3]", "result": "binds"}, {"measurement": "binding result", "setting": "[4]", "result": "binds"}, {"measurement": "binding result", "setting": "[5]", "result": "binds"}, {"measurement": "binding result", "setting": "[6]", "result": "binds more weakly"}, {"measurement": "binding result", "setting": "[7]", "result": "binds"}]}]}
